Measured values taken from PubChem BioAssay AID587 (National Center for Advancing Translational Sciences (NCATS), 2007).
Out of some 59,000 compounds screened, about 35 (0.06%) were called active. Inconclusive means that the source gave no clear call. Such entries were picked first, then a sample of the others. No stated cut-off is given here; in the data, active means max dye-equivalent concentration above about 10 nM; inconclusive means between about 1.1 nM and that limit; inactive means weaker than that.

assay: qHTS Assay for Spectroscopic Profiling in Texas Red Spectral Region; details: Compound fluorescence, Texas Red channel, 547/618 nm; stronger effect = higher value
Method in brief: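 Pin-transferred compounds and Texas Red standards go into 100 mM Tris buffer, pH 8.0. After 15 min at room temperature, plates are imaged with 547/618 nm filters. Each value is a dye-equivalent concentration derived from the per-plate dye curve.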

| SMILES | max dye-equivalent concentration |
| --- | --- |
| Cc1ccc(S(=O)(=O)N2CCOCC2)cc1C(=O)NCc1cn2ccsc2n1 | inconclusive: 3.3 nM |
| C[C@@](N)(/C=C\c1ccccc1)C(=O)O | inactive |
| Cc1cc(NC(=O)CCCC(=O)N(CC(=O)NC2CCCCC2)c2ccccc2)no1 | inconclusive: 1.1 nM |
| OCCN1CCN(c2ncnc3c2sc2nc(N4CCOCC4)c4c(c23)CCC4)CC1 | inconclusive: 1.2 nM |
| O=C(NCc1ccccc1Br)c1ccco1 | inconclusive: 1.2 nM |
| C=CCn1c(SC(C)C(=O)NC2(C#N)CCCCC2)nnc1-c1ccc(OC)cc1 (centres undefined) | inconclusive: 1.3 nM |
| CCCCNC(=O)Nc1c(C(=O)OCC)[nH]c2ccccc12 | inconclusive: 1.1 nM |
| O=C(NCCN1CCOCC1)C1CC(=O)N(c2ccc(F)c(Cl)c2)C1 (centres undefined) | inconclusive: 1.4 nM |
| CCCCC(=NCCO)C1=C(O)C(C(=O)OC)C(C)(C)CC1=O (centres undefined) | inconclusive: 1.1 nM |
| COCCNC(=O)CN1CCC(NC(=O)Nc2ccc(C(F)(F)F)cc2)CC1 | inconclusive: 1.2 nM |
| COCCN(CC(=O)NCC1CCCO1)C(=O)CCC(=O)Nc1cc(C)on1 (centres undefined) | inconclusive: 1.1 nM |
| CC1(C)Cc2nc(N)c(=O)sc2C1 | inconclusive: 1.1 nM |
| CN(c1ccccc1C(=O)NCC1CCCO1)S(C)(=O)=O (centres undefined) | inconclusive: 1.1 nM |
| CCOc1cc(S(=O)(=O)N2CCN(CC)CC2)ccc1Cl | inconclusive: 2.2 nM |
| FC(F)(F)c1cc(-c2ccco2)nc(-n2cnc3ccccc32)n1 | inconclusive: 2.4 nM |
| COCCNS(=O)(=O)c1cc(OC)c(Cl)cc1Cl | inconclusive: 1.7 nM |
| O=C(COC(=O)Cc1cccs1)Nc1ccccc1 | inconclusive: 1.9 nM |
| O=C(CN(CC1CCCO1)C(=O)CNS(=O)(=O)c1ccccc1)NCc1ccccc1 (centres undefined) | inconclusive: 1.1 nM |
| C[C@H](CN(C)C)C(O)(c1ccccc1)c1ccccc1 | inactive |
| O=c1[nH]c2[nH]c(=S)[nH]c(=S)c2[nH]1 | inactive |
| Cc1ccc(N)cc1-n1c(C)ccc1C | inconclusive: 1.3 nM |
| COCCn1c(SCC(=O)Nc2cc(C)cc(C)c2)nnc1C(C)C | inconclusive: 1.1 nM |
| O=S(=O)(Nc1cccc(C(F)(F)F)c1)c1cnc[nH]1 | inconclusive: 1.2 nM |

| SMILES | max dye-equivalent concentration |
| --- | --- |
| O=C1CCC(C(=O)N(Cc2ccco2)C2(C(=O)NC3CCCC3)CCCCC2)N1 (centres undefined) | inconclusive: 1.2 nM |
| CCOc1ccc(C(N)=O)cc1OC | inconclusive: 1.7 nM |
| Cc1cc(C)n2nc[n+](C)c2n1 | inconclusive: 1.1 nM |
| Cn1cc[nH]c1=S | inactive |
| O=C(NC1CC1)C1CCC(=O)N1C1CCCC1 (centres undefined) | inconclusive: 2.1 nM |
| CCn1c(CSc2nccn2C)nc2cc(C(=O)O)ccc21 | active: 27 nM |
| COCCN(Cc1cc2cccc(C)c2[nH]c1=O)C(=O)c1ccccc1 | inconclusive: 3.2 nM |
| OCCNc1ncnc2nc[nH]c12 | inactive |
| O=C(CSc1cc(Cl)ccc1Cl)NCC1CCCO1 (centres undefined) | inconclusive: 1.2 nM |
| CC(C)Cn1c(=O)c2c(c3ccccc31)OC(C)C(=O)N2 (centres undefined) | inconclusive: 1.6 nM |
| O=C1CN(c2ccccc2Cl)C(=O)CN1c1ccccc1Cl | inconclusive: 1.8 nM |
| Cc1cc(C)nc(N2CCCC(C(=O)NCCc3ccc(F)cc3)C2)n1 (centres undefined) | inconclusive: 1.6 nM |
| Cc1ccc(S(=O)(=O)Nc2ccc(C(=O)Nc3cc(C)on3)cc2)cc1 | inconclusive: 1.9 nM |
| CC1CCN(c2[nH]c(=S)c(C#N)c3c2CCCC3)CC1 | inconclusive: 1.2 nM |
| COCCNC(=O)CN(C(=O)CCC(=O)Nc1cc(C)on1)c1ccc(C)cc1C | inconclusive: 1.5 nM |
| Cc1ccc(C)c(Cn2nnc3c(=O)[nH]c(C4CCN(C(=O)c5cccs5)CC4)nc32)c1 | inconclusive: 1.4 nM |
| O=C(c1cc2ccccc2oc1=O)N(Cc1cccs1)C1CCS(=O)(=O)C1 (centres undefined) | inconclusive: 1.3 nM |
| Brc1ccccc1-c1nnc(CSc2nnc3sc4ccccc4n23)o1 | inconclusive: 1.5 nM |
| O=C(COC(=O)c1ccco1)NCc1cccs1 | inconclusive: 1.1 nM |
| COc1ccc(-n2c(N)c(C(=O)NCC3CCCO3)sc2=S)cc1 (centres undefined) | inconclusive: 1.3 nM |
| CC1=NS(=O)(=O)c2cc(Cl)ccc2N1 | inconclusive: 1.9 nM |
| O=C(Cc1c(C(=O)O)[nH]c2ccc(Cl)cc12)Nc1ccc2c(c1)OCCO2 | inconclusive: 1.8 nM |
| COc1ccc(OC)c(-n2nnnc2SCC(=O)Nc2nc(C)c(C)s2)c1 | inconclusive: 1.3 nM |

| SMILES | max dye-equivalent concentration |
| --- | --- |
| Cc1ccc(S(=O)(=O)N2c3ccc(S(N)(=O)=O)cc3CC2C)cc1 (centres undefined) | inconclusive: 1.5 nM |
| CCOc1ccc(OCC)c(NS(=O)(=O)c2ccc3c(c2)n(C)c(=O)c(=O)n3C)c1 | inconclusive: 1.7 nM |
| COCCNC(=O)CN1CCN(C(c2ccccc2)c2ccccc2)CC1 | inconclusive: 1.4 nM |
| CS(=O)(=O)N(CC(=O)N1CCN(c2ccccc2)CC1)C1CCCCC1 | inconclusive: 1.5 nM |
| Cc1ccc(-c2nn3c(C)nnc3s2)cc1NC(=O)CSc1ccc(Cl)cc1 | inconclusive: 2.3 nM |
| CC(C)[C@H](NC(=O)Nc1ccc(S(N)(=O)=O)cc1)C(=O)O | inactive |
| CN=C1SC(CC(=O)Nc2ccc(N3CCOCC3)cc2)C(=O)N1C (centres undefined) | inconclusive: 1.5 nM |
| CNC(=O)NCC12CC3CC(CC(C3)C1)C2 | inconclusive: 1.2 nM |
| COc1ccc2cc(CN(CCc3ccccc3)Cc3nnnn3CC3CCCO3)c(=O)[nH]c2c1 (centres undefined) | inconclusive: 1.2 nM |
| COc1cccc(CNC(=O)CCCNS(=O)(=O)c2cccs2)c1 | inconclusive: 1.5 nM |
| O=C(Cn1cnc2ccccc21)NCc1ccccc1 | inconclusive: 1.3 nM |
| Cc1nn(-c2ccccc2)c(C)c1C(=O)OCC(=O)N1CC(=O)Nc2ccccc21 | inconclusive: 1.1 nM |
| CCc1c(C)c2ccc(OCC(=O)OC(C)C)c(C)c2oc1=O | inconclusive: 1.2 nM |
| CC(C(=O)N1CCCc2c1c(=O)oc1ccc(O)cc21)N1CCc2ccccc2C1 (centres undefined) | inconclusive: 2 nM |
| COc1ccc(/C(O)=C2/C(=O)C(=O)N(CCCC(=O)O)C2c2ccc(OC)c(OC)c2)cc1 (centres undefined) | inconclusive: 1.2 nM |
| CCOC(=O)c1ccc(NC(=O)c2nn(CC)cc2Br)cc1 | inconclusive: 1.1 nM |
| CC1CC(C)CN(CCCNC(=O)c2ccc3c(c2)NC(=O)C(N2CCCCC2)S3)C1 (centres undefined) | inconclusive: 1.1 nM |
| CC1CCN(C(=O)C2CCN(C(=O)c3cc4sccc4n3Cc3ccc(F)cc3)CC2)CC1 | inconclusive: 1.5 nM |
| Cc1cc(C(=O)CN2C(=O)NC3(CCCc4ccccc43)C2=O)c(C)n1Cc1cccs1 (centres undefined) | inconclusive: 1.5 nM |
| COc1ccc2[nH]c3c(=O)n(CCCCC(=O)N4CCC(C(N)=O)CC4)c(=S)[nH]c3c2c1 | inconclusive: 1.1 nM |
| O=c1[nH]c(Cc2cccs2)nc2ccccc12 | inconclusive: 2 nM |
| Cc1cnc(CNc2ncnc3ccc(-c4ccc(N(C)C)cc4)cc23)cn1 | inactive |
| CCNS(=O)(=O)c1cc(S(C)(=O)=O)ccc1Cl | inconclusive: 1.2 nM |

Sorted by molecular weight (rising): part of the list above.

| SMILES | max dye-equivalent concentration |
| --- | --- |
| CNC(=O)NCC12CC3CC(CC(C3)C1)C2 | inconclusive: 1.2 nM |
| CC1=NS(=O)(=O)c2cc(Cl)ccc2N1 | inconclusive: 1.9 nM |
| O=c1[nH]c(Cc2cccs2)nc2ccccc12 | inconclusive: 2 nM |
| O=C(COC(=O)c1ccco1)NCc1cccs1 | inconclusive: 1.1 nM |
| CCNS(=O)(=O)c1cc(S(C)(=O)=O)ccc1Cl | inconclusive: 1.2 nM |
| CC(C)[C@H](NC(=O)Nc1ccc(S(N)(=O)=O)cc1)C(=O)O | inactive |
| CCc1c(C)c2ccc(OCC(=O)OC(C)C)c(C)c2oc1=O | inconclusive: 1.2 nM |
| CN=C1SC(CC(=O)Nc2ccc(N3CCOCC3)cc2)C(=O)N1C (centres undefined) | inconclusive: 1.5 nM |
| COc1ccc(-n2c(N)c(C(=O)NCC3CCCO3)sc2=S)cc1 (centres undefined) | inconclusive: 1.3 nM |
| Cc1ccc(S(=O)(=O)N2c3ccc(S(N)(=O)=O)cc3CC2C)cc1 (centres undefined) | inconclusive: 1.5 nM |
| COCCNC(=O)CN1CCN(C(c2ccccc2)c2ccccc2)CC1 | inconclusive: 1.4 nM |
| COc1cccc(CNC(=O)CCCNS(=O)(=O)c2cccs2)c1 | inconclusive: 1.5 nM |
| Cc1cnc(CNc2ncnc3ccc(-c4ccc(N(C)C)cc4)cc23)cn1 | inactive |
| CS(=O)(=O)N(CC(=O)N1CCN(c2ccccc2)CC1)C1CCCCC1 | inconclusive: 1.5 nM |
| O=C(Cc1c(C(=O)O)[nH]c2ccc(Cl)cc12)Nc1ccc2c(c1)OCCO2 | inconclusive: 1.8 nM |
| O=C(c1cc2ccccc2oc1=O)N(Cc1cccs1)C1CCS(=O)(=O)C1 (centres undefined) | inconclusive: 1.3 nM |
| Cc1nn(-c2ccccc2)c(C)c1C(=O)OCC(=O)N1CC(=O)Nc2ccccc21 | inconclusive: 1.1 nM |
| COc1ccc(OC)c(-n2nnnc2SCC(=O)Nc2nc(C)c(C)s2)c1 | inconclusive: 1.3 nM |
| Cc1ccc(-c2nn3c(C)nnc3s2)cc1NC(=O)CSc1ccc(Cl)cc1 | inconclusive: 2.3 nM |
| CCOc1ccc(OCC)c(NS(=O)(=O)c2ccc3c(c2)n(C)c(=O)c(=O)n3C)c1 | inconclusive: 1.7 nM |
| Brc1ccccc1-c1nnc(CSc2nnc3sc4ccccc4n23)o1 | inconclusive: 1.5 nM |
| CC1CC(C)CN(CCCNC(=O)c2ccc3c(c2)NC(=O)C(N2CCCCC2)S3)C1 (centres undefined) | inconclusive: 1.1 nM |
| Cc1cc(C(=O)CN2C(=O)NC3(CCCc4ccccc43)C2=O)c(C)n1Cc1cccs1 (centres undefined) | inconclusive: 1.5 nM |
| COc1ccc(/C(O)=C2/C(=O)C(=O)N(CCCC(=O)O)C2c2ccc(OC)c(OC)c2)cc1 (centres undefined) | inconclusive: 1.2 nM |
| COc1ccc2[nH]c3c(=O)n(CCCCC(=O)N4CCC(C(N)=O)CC4)c(=S)[nH]c3c2c1 | inconclusive: 1.1 nM |
| CC1CCN(C(=O)C2CCN(C(=O)c3cc4sccc4n3Cc3ccc(F)cc3)CC2)CC1 | inconclusive: 1.5 nM |
| COc1ccc2cc(CN(CCc3ccccc3)Cc3nnnn3CC3CCCO3)c(=O)[nH]c2c1 (centres undefined) | inconclusive: 1.2 nM |

Additional entries

| SMILES | max dye-equivalent concentration |
| --- | --- |
| Nc1ccc(S(=O)(=O)Nc2nccs2)cc1 | inconclusive: 1.5 nM |
| CC(C)(O)C#CC#CCN1CCOCC1 | inconclusive: 1.2 nM |
| C[N+]1(CCC[N+]2(C)C[C@H]3[C@H](C2)[C@H]2C=C[C@@H]3CC2)CCOCC1 (some centres undefined) | inactive |
| CCOc1ccc2[nH]c(=O)c(CN(CCO)C(c3nnnn3C3CCCCC3)C(C)C)cc2c1 (centres undefined) | inconclusive: 2.7 nM |
| COc1ccccc1-n1nnnc1SCC(=O)Nc1cc(C)on1 | inconclusive: 1.1 nM |
| COc1ccc(OC)c(-c2nnc(SCC(=O)N3CCOCC3)o2)c1 | inconclusive: 1.4 nM |
| O=C(O)c1cn(-c2ccccc2)nc1-c1ccncc1 | inconclusive: 1.2 nM |
| COc1ccc(-c2nc(C)sc2CC(=O)O)cc1 | inconclusive: 1.5 nM |
| O=C1CCCN1CCCNc1ncnc2c1[nH]c1ccc(Cl)cc12 | inconclusive: 1.2 nM |
| COC(=O)CSc1nnc(-c2ccc(S(=O)(=O)NCc3cccs3)cc2)o1 | inconclusive: 1.1 nM |
| COc1ccc(-c2ccnc(SCC(=O)N3CCOCC3)n2)cc1 | inactive |
| O=C(NC[C@@H]1CCCCN1)c1cc(OCC(F)(F)F)ccc1OCC(F)(F)F | inconclusive: 1.3 nM |
| Cn1c(N)c(C(=O)COC(=O)Cc2ccsc2)c(=O)n(C)c1=O | inconclusive: 1.8 nM |
| COc1ccc2c(c1)c(CC(=O)O)c(C)n2Cc1ccc(F)cc1 | inconclusive: 1.1 nM |
| CN(C)CN1C(=O)S/C(=C2/C(=O)N(CN(C)C)c3ccccc32)C1=O | inactive |
| CCOC(=O)C(C)Sc1nc2c(c(=O)[nH]c(=O)n2C)n1C/C=C(/C)Cl (centres undefined) | inconclusive: 1.1 nM |
| COC(=O)C(C)Sc1ccc2nnc(-c3ccc(F)cc3)n2n1 (centres undefined) | inconclusive: 1.5 nM |
| CCn1c(NCc2ccc(N(C)C)cc2)nc2ccccc21 | inconclusive: 2 nM |
| CCC(C(=O)O)n1c(C(F)(F)F)nc2ccccc21 (centres undefined) | inconclusive: 1.2 nM |
| COCc1[nH]nc2c1C(C1C=CCCC1)C(C#N)=C(N)O2 (centres undefined) | inconclusive: 1.1 nM |
